Results deposited as PubChem BioAssay AID1259424 (University of Nebraska Medical Center, 2018)
The deposit covers about 14,000 reagents; below is a part drawn at random. 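Higher correlation or smaller distance means closer resemblance to KSR1 loss; control wells, including KSR1 knockdowns, recur on many plates.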 Further read-outs or replicates are left out here. Reagent sequences are not shown. Not given: the time to read-out.

- Purpose: 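Find knockdowns that reproduce the expression shifts seen after KSR1 loss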 (primary screen)
- Cell system: human HCT116 colon cancer cells
- Knock-down reagent: siRNA pool against human genes, 50 nM
- Read-out: 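Log2 levels of six mRNAs (branched-DNA multiplex), adjusted by two reference genes and the non-targeting median, then scored against the average KSR1 knockdown pattern as Pearson r and euclidean distance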
- Direction: mean correlation with KSR1 profile: higher = expression change more like KSR1 knockdown

After knock-down of GARIN1B (golgi associated RAB2 interactor 1B), the record shows mean correlation with KSR1 profile 0.189. Against AKT3 (AKT serine/threonine kinase 3), the values are mean correlation with KSR1 profile -0.0949. After knock-down of SNX4 (sorting nexin 4), the record shows mean correlation with KSR1 profile -0.349. Depletion of ZNF416 (zinc finger protein 416) came out at: mean correlation with KSR1 profile -0.535. For PPP1R14D (protein phosphatase 1 regulatory inhibitor subunit 14D), the entry reads mean correlation with KSR1 profile 0.854. ELP5 (elongator acetyltransferase complex subunit 5) showed mean correlation with KSR1 profile -0.0421.

Silencing of EGF (epidermal growth factor) gave: mean correlation with KSR1 profile -0.126.

A few values from the entries so far:
AKT3 (AKT serine/threonine kinase 3), mean correlation with KSR1 profile: -0.0949
Value of PPP1R14D (protein phosphatase 1 regulatory inhibitor subunit 14D) in “mean correlation with KSR1 profile”: 0.854

The results go on:
With knock-down of CTDSP2 (CTD small phosphatase 2), the record shows mean correlation with KSR1 profile -0.204. For ZC4H2 (zinc finger C4H2-type containing), the entry reads mean correlation with KSR1 profile -0.094. Depletion of SLC35A2 gave: mean correlation with KSR1 profile -0.574. Against SEPHS2 (selenophosphate synthetase 2) the deposit lists mean correlation with KSR1 profile 0.408. Against ACYP1 (acylphosphatase 1), the values are mean correlation with KSR1 profile -0.357.
